Measured values reported in PubChem BioAssay AID504444 (National Center for Advancing Translational Sciences (NCATS), 2011).
The whole screen tested about 360,000 compounds, of which about 7,500 (2.1%) were called active. The shares of active, inactive and inconclusive entries below differ from those in the screen. Calls come from the whole dose curve; as a rule, active = well fitted inhibition curve with a large enough effect; inconclusive = small, poorly fitted or top-dose-only effect, or effect the other way; inactive = flat fitted curve, though single readings scatter. Potencies beside an inconclusive call are fits to weak or partial responses and may not hold up.
Potency is the fitted concentration of half-maximal effect.

Assay: Nrf2 qHTS screen for inhibitors; note: nearly all actives have a fitted effect of over 60% in size
Details: A549 ARE-Fluc reporter, luciferase luminescence, 18-24 h; series mostly up to 46 µM
How it was run: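 In this cell-based qHTS, ARE-driven firefly luciferase in A549 cells reports Nrf2 activity; the luminescent signal after BugLite lysis is the measured value, with a prior CellTiter-Fluor read for cell health.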
In the case of `Cc1nc2cc(-c3ccccc3)nn2c(C)c1CCC(=O)Nc1ccc(F)cc1F`, the Potency is reported as inconclusive: 23.1 µM [falling, partial curve, poor fit].
For `CC(C)(C)OC(=O)NCCCCCc1nnc(SCc2ccccc2F)o1`, the Potency was inconclusive: 29.1 µM [falling, single point].
In the case of `CCOc1ccc(NC(=O)CCc2c(C)nn(-c3ccc(N4CCCC4)nn3)c2C)cc1`, the Potency is reported as inconclusive: 20.6 µM [activator, single point].
For `Cc1ccc(CNC(=O)CCCn2c(=O)c3ccccc3n(CC(=O)Nc3ccc(C)cc3)c2=O)cc1`, the Potency was “inactive”.
With `CCN(c1ccccc1)S(=O)(=O)c1ccc(OC)c(NC(=O)CNC)c1` the Potency was “inactive”.
In the case of `Cc1cc(C(C)(C)C)ccc1OCC(=O)N/N=C\c1c(C)n(C)n(-c2ccccc2)c1=O`, the Potency is reported as “inactive”.
With `C=CCn1c(SCC(=O)Nc2ccc(C(=O)OC(C)C)cc2)nnc1-c1cccs1` the Potency was inconclusive: 11.6 µM [falling, partial curve, poor fit].
For `Cc1ccc(CN(C)C(=O)c2cccc(S(=O)(=O)N3CCCC3)c2)o1`, the Potency was “inactive”.
With `O=C(CS(=O)(=O)Cc1ccccc1)NCCc1ccc(F)cc1` the Potency was “inactive”.
For `O=C(COc1ccccc1)NCC(=O)N/N=C/c1ccc(O)cc1O`, the Potency was inconclusive: 23.1 µM [falling, single point].
With `O=C1C=C(c2ccc3[nH]ccc3c2)C[C@@H](c2ccc(Cl)cc2)C1` the Potency was inconclusive: 29.1 µM [falling, single point].
For `C(=C\c1ccccc1)/CSc1nnc(-c2ccccn2)n1Cc1ccco1`, the Potency was “inactive”.
In the case of `CC1(C)CC(=O)C/C(=N/NC(=O)c2ccc(-c3ccccc3)cc2)C1`, the Potency is reported as active: 16.4 µM.
With `OC(COCc1cccs1)CN1CCN(c2cccc(C(F)(F)F)c2)CC1` (stereo not drawn) the Potency was “inactive”.
With `Cc1ccc(-n2c(C)nnc2SCC(=O)Nc2ccccc2)cc1` the Potency was inconclusive: 0.13 µM [falling, full curve].
In the case of `Cc1cc(C)cc(NC(=O)CC23CC4CC(C2)CC(n2nnc(C)n2)(C4)C3)c1`, the Potency is reported as inconclusive: 20.6 µM [falling, single point].
With `N#Cc1nc(-c2ccco2)oc1NCc1ccccc1Cl` the Potency was inconclusive: 32.6 µM [falling, single point].
With `Cc1ccc(CNC(=O)c2cc3c(=O)n(Cc4ccco4)ccc3nc2C)cc1` the Potency was “inactive”.
With `O=C(Cc1ccc(Cl)cc1)Nc1cccc(S(=O)(=O)N2CCCCC2)c1` the Potency was inconclusive: 16.4 µM [falling, single point].
With `COCCCNC(=O)c1sc2ncnc(N3CCc4ccccc4C3)c2c1C` the Potency was inconclusive: 18.4 µM [falling, partial curve].
For `Cc1ccccc1NCCC(=O)Nc1ccc(F)cc1`, the Potency was inconclusive: 20.6 µM [activator, single point].
With `Cc1ccc(C)c(Nc2cc(C(=O)NC3CCCC3)c3ccccc3n2)c1` the Potency was “inactive”.
With `Cc1ccc(C(=O)N2C(=S)C(c3ccc(F)cc3)=NC23CCN(C)CC3)cc1` the Potency was inconclusive: 29.1 µM [falling, single point].
With `CCOC(=O)C1CCCN(C(=O)c2sc3nc(-c4ccccc4)cn3c2C)C1` (stereo not drawn) the Potency was inconclusive: 25.9 µM [falling, partial curve, poor fit].
With `CN(CC1CCCO1)S(=O)(=O)c1ccc(C(=O)Nc2ccccc2F)cc1` (stereo not drawn) the Potency was inconclusive: 23.1 µM [activator, single point].
In the case of `COc1ccc(NS(=O)(=O)CC(C)C)c(OC)c1`, the Potency is reported as “inactive”.
For `O=C(/C=C/c1ccccc1Cl)N1CCC(c2nc3ccccc3o2)CC1`, the Potency was “inactive”.
In the case of `Cc1ccc(S(=O)(=O)c2ccc([N+](=O)[O-])cn2)cc1`, the Potency is reported as inconclusive: 20.6 µM [falling, single point].
With `O=C(NC1CCCC1)C(c1ccccc1F)N(C(=O)Cc1cccs1)c1ccc2c(c1)OCCO2` (stereo not drawn) the Potency was inconclusive: 20.6 µM [falling, single point].
For `CC(C)(C)c1nc2ccccc2c(=O)n1N1C(=O)c2ccccc2C1=O`, the Potency was inconclusive: 29.1 µM [falling, single point].
With `Nc1nc2c(s1)CC(c1ccccc1)CC2` (stereo not drawn) the Potency was inconclusive: 9.2 µM [falling, partial curve, poor fit].
With `CCOc1ccc(NC(=O)c2sc3nc4n(c(=O)c3c2C)CCC4)cc1` the Potency was inconclusive: 16.4 µM [falling, single point].
With `COC(=O)N1CCCc2cc(S(=O)(=O)NCc3ccccc3)ccc21` the Potency was active: 23.1 µM.
With `Cn1nc(C(F)(F)F)c2cc(C(=O)Nc3ccc(F)cc3F)sc21` the Potency was inconclusive: 18.4 µM [falling, partial curve, poor fit].
For `CC1=C(C(=O)OCC2CCCO2)C(c2cccc(C(F)(F)F)c2)C2=C(CC(c3ccco3)CC2=O)N1` (stereo not drawn), the Potency was active: 23.1 µM.
With `COc1cccc(NC(=S)N2CCCN(Cc3ccc(F)cc3)C2)c1` the Potency was inconclusive: 7.31 µM [activator, partial curve].
For `COc1ccc(S(=O)(=O)N2CCC(C(=O)Nc3ccc(F)cc3)CC2)c2cccnc12`, the Potency was inconclusive: 14.6 µM [falling, partial curve].
For `O=c1c2ccccc2nc2n1CCCCN2`, the Potency was “inactive”.
With `CCOC(=O)Cc1csc(NC(=S)NC(=O)C(C)(C)C)n1` the Potency was inconclusive: 29.1 µM [falling, single point].
In the case of `COC(=O)c1c(NC(=O)C2CC=CCC2C(=O)O)sc2c1CCCCC2` (stereo not drawn), the Potency is reported as “inactive”.
For `O=c1c2cccc(Cl)c2nc2n1Cc1ccccc1-2`, the Potency was inconclusive: 6.51 µM [activator, single point].
In the case of `Cc1nn(CC(=O)NC2CCC(C)CC2)c(=O)c2c1sc1ccccc12` (stereo not drawn), the Potency is reported as inconclusive: 7.31 µM [falling, partial curve, poor fit].
With `Cc1ccc(NCc2ccccc2O)cc1` the Potency was “inactive”.
For `CCOC(=O)N1CCN(C(=O)c2ccc(Cn3c(=S)[nH]c4cc(OCC)c(OCC)cc4c3=O)cc2)CC1`, the Potency was inconclusive: 5.8 µM [falling, full curve, poor fit].
With `CCn1cc2nc(SCC(=O)Nc3cc(OC)cc(OC)c3)n(Cc3ccc(Cl)cc3)c(=O)c2n1` the Potency was inconclusive: 11.6 µM [falling, partial curve, poor fit].
For `CCC(=O)Nc1ccc(NC(=O)c2ccco2)cc1`, the Potency was inconclusive: 1.3 µM [activator, full curve].
With `Cc1ccc2oc(-c3ccc(NC(=O)CCC(=O)O)cc3)nc2c1` the Potency was inconclusive: 9.2 µM [activator, partial curve, poor fit].
With `O=S(=O)(c1ccccc1)N1CCN(c2ccnc3cc(Cl)ccc23)CC1` the Potency was active: 23.1 µM.
For `O=C(c1ccc2ncsc2c1)N1CCN(c2nc3ccccc3s2)CC1`, the Potency was active: 18.4 µM.
For `CC(=O)Nc1cccc(N/C=C(\C=O)c2nc3ccccc3o2)c1`, the Potency was inconclusive: 23.1 µM [activator, single point].
In the case of `C[C@]12CCC(O)CC1=CCC1C2CC[C@]2(C)/C(=N\NC(N)=S)CCC12` (stereo partly drawn), the Potency is reported as inconclusive: 5.8 µM [falling, partial curve, poor fit].
In the case of `CCN(Cc1ccccc1)C(=O)c1cccc(S(=O)(=O)N2CCN(Cc3ccccc3)CC2)c1`, the Potency is reported as inconclusive: 20.6 µM [falling, single point].
With `O=C(NCc1ccco1)C1CCN(S(=O)(=O)N2CCOCC2)CC1` the Potency was “inactive”.
With `CC(C)c1cc(C(=O)N2CCN(C(c3ccccc3)c3ccccc3)CC2)no1` the Potency was inconclusive: 32.6 µM [falling, single point].
For `CCCCN(CC)CCNC(=O)C1CCN(S(=O)(=O)c2cccc3nsnc23)CC1`, the Potency was inconclusive: 2.91 µM [falling, partial curve, poor fit].
With `CC(C(=O)Nc1ccc(O)cc1)c1cccc(C(=O)c2ccccc2)c1` (stereo not drawn) the Potency was active: 9.2 µM.
For `CC1CC2C3CCC4=CC(=O)CCC4(C)C3CCC2(C)C1(O)C(=O)CO` (stereo not drawn), the Potency was active: 0.651 µM.
In the case of `N[C@@H](Cc1cc(I)c(Oc2ccc(O)c(I)c2)c(I)c1)C(=O)O`, the Potency is reported as inconclusive: 16.4 µM [falling, single point].
With `NC(=O)CC(NC(=O)c1ccccc1)c1ccc(NC2CCCC2)c([N+](=O)[O-])c1` (stereo not drawn) the Potency was inconclusive: 25.9 µM [falling, partial curve, poor fit].
In the case of `Cc1ccc(OCc2nnc(SCC(=O)Nc3ccc4c(c3)OCCO4)n2Cc2ccco2)cc1`, the Potency is reported as inconclusive: 10.3 µM [falling, partial curve, poor fit].
In the case of `O=C(c1ccc(CS(=O)Cc2ccc(Cl)cc2)o1)N1CCN(c2ccccn2)CC1` (stereo not drawn), the Potency is reported as inconclusive: 11.6 µM [falling, partial curve].
For `Cc1cccc(C)c1NC(=O)c1ccc2c(c1)nnn2C1CCCC1`, the Potency was inconclusive: 20.6 µM [falling, partial curve].
With `COc1ccc(NC(=O)c2cc(C)n(Cc3cccs3)c2C)cc1` the Potency was inconclusive: 0.651 µM [activator, full curve].
For `C#CCNC(=O)C1=C[C@@H](c2csc3ccccc23)C[C@@H](OCc2ccc(CO)cc2)O1`, the Potency was inconclusive: 29.1 µM [falling, single point].
For `Cn1nc(-c2ccc(C(=O)Nc3cccc(Cl)c3)cc2)c2ccccc2c1=O`, the Potency was active: 6.51 µM.
With `CCN(C(=O)c1ccc(Cl)cc1[N+](=O)[O-])c1ccccc1C` the Potency was inconclusive: 6.51 µM [falling, single point].
In the case of `C=C(c1ccc2nc(NC(=O)OC)[nH]c2c1)c1cccs1`, the Potency is reported as inconclusive: 0.651 µM [activator, single point].
For `COc1cc(NS(=O)(=O)c2ccc(NC(=O)NC3CCCCC3)cc2)nc(OC)n1`, the Potency was inconclusive: 6.51 µM [falling, partial curve].
